Experimental data: PubChem BioAssay AID192 (DTP/NCI, 2004)
The list does not hold the whole screen: it is rich in T/C values a quarter to a half above the control, in often repeated tests (any T/C) and in doses without a T/C. Further doses and runs are listed elsewhere. T/C: endpoint of the treated group in % of that of the vehicle group. Some doses have a count of surviving animals in place of a T/C: the source holds a T/C of zero for them, seemingly a mark for toxic or unscored doses. Some survivor counts are full or nearly so, which does not show that the dose was tolerated: survival well below the control is almost never listed, so the zero probably covers shortened survival too. Survivors were counted at the toxicity check, usually on the fifth day, unless a day is given; later deaths do not show. Schedules are NCI's codes, read here as Q, the interval in days (D) or hours (H), X, the number of doses. Additions like (4×) stand for listed records that agree. Where survival is the endpoint, the PubChem record calls one and a half times the control and up active, and a quarter to a half above the control has no call in these data; cut-offs in other NCI protocols can differ. Some doses were run more than once; the values are given in rising order.

Test system: BDF1 mice, B16 melanoma ip, median survival T/C
Assay: NCI In Vivo Anticancer Drug Screen. Data for tumor model B16 Melanoma (intraperitoneal) in B6D2F1 (BDF1) mice
Conditions: T/C endpoint: median survival time, higher T/C = longer survival
How it was run: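 The ratio T/C compares compound-treated mice with vehicle-treated controls, using survival or tumor size as the endpoint in a transplantable tumor model.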

[1] = dose: 25.0 mg/kg/injection, schedule: Q01DX009 (ip), vehicle: Klucel (hydroxypropylcellulose) (HPC)
[2] = dose: 100.0 mg/kg/injection, schedule: Q01DX009 (ip), vehicle: saline with Tween-80
[3] = dose: 400.0 mg/kg/injection, schedule: Q01DX009 (ip), vehicle: saline with Tween-80
[4] = dose: 200.0 mg/kg/injection, schedule: Q01DX009 (ip), vehicle: saline with Tween-80

Compound: CCC1C(=O)NC(=O)C1(C)c1ccccc1 (configuration not stated)
- survivor count (dose: 400.0 mg/kg/injection, schedule: Q01DX009 (ip), vehicle: saline): 5 of 10

Compound: Cc1ccc2c(c1)C(=O)N(CC[P+](c1ccccc1)(c1ccccc1)c1ccccc1)C2=O
- survivor count [1]: 8 of 10

Compound: CCCCCCCCCCCCNCCC#N
- survivor count [2]: 9 of 10

Compound: Cc1cnc2c(=N)n(C(=O)C(F)(F)F)n(C)c2n1
- survivor count (dose: 400.0 mg/kg/injection, schedule: Q01DX009 (ip), vehicle: Klucel (hydroxypropylcellulose) (HPC)): 0 of 10

Compound: O=C(O)/C=C/C(=O)Nc1cccc(Oc2ccc([N+](=O)[O-])cc2[N+](=O)[O-])c1
- survivor count (dose: 75.0 mg/kg/injection, schedule: Q01DX009 (ip), vehicle: Klucel (hydroxypropylcellulose) (HPC)): 10 of 10

Compound: COC1/C=C/O[C@@]2(C)Oc3c(C)c(O)c4c(O)c(cc(O)c4c3C2=O)NC(=O)/C(C)=C\C=C\[C@H](C)C(O)[C@@H](C)[C@@H](O)[C@@H](C)[C@H](OC(C)=O)[C@@H]1C (some centres not stated)
- survivor count [3]: 6 of 6

Compound: NC1=NC(=O)C(c2ccccc2)O1 (configuration not stated)
- survivor count (dose: 50.0 mg/kg/injection, schedule: Q01DX009 (ip), vehicle: Klucel (hydroxypropylcellulose) (HPC)): 9 of 10
- survivor count (dose: 200.0 mg/kg/injection, schedule: Q01DX009 (ip), vehicle: Klucel (hydroxypropylcellulose) (HPC)): 9 of 10

Compound: CCOC(=O)N1CCN(CCCCCOc2ccccc2C2CCCCC2)CC1
- survivor count [2]: 10 of 10
- survivor count [4]: 10 of 10

Compound: CC(=O)Oc1ccc(OC(C)=O)c2c1C(=O)C=CC2=O
- survivor count (dose: 2.0 mg/kg/injection, schedule: Q01DX009 (ip), vehicle: Klucel (hydroxypropylcellulose) (HPC)): 9 of 10
- survivor count (dose: 3.12 mg/kg/injection, schedule: Q01DX009 (ip), vehicle: Klucel (hydroxypropylcellulose) (HPC)): 10 of 10
- survivor count (dose: 6.25 mg/kg/injection, schedule: Q01DX009 (ip), vehicle: Klucel (hydroxypropylcellulose) (HPC)): 6 of 10
- survivor count (dose: 12.5 mg/kg/injection, schedule: Q01DX009 (ip), vehicle: Klucel (hydroxypropylcellulose) (HPC)): 10 of 10
- survivor count [1]: 0 of 10

Compound: NC(=S)N/N=C/c1ccc(OC(=O)COc2ccccc2)cn1
- T/C [2]: 126 and 139 % of control
- T/C [4]: 129 and 131 % of control
- survivor count [3]: 10 of 10
- survivor count (dose: 800.0 mg/kg/injection, schedule: Q01DX009 (ip), vehicle: saline with Tween-80): 10 of 10

Compound: COc1cc(C2=NCCc3cc4c(cc32)OCO4)cc(OC)c1OC
- survivor count (dose: 200.0 mg/kg/injection, schedule: Q01DX009 (ip), vehicle: saline): 8 of 10

Compound: CC(=O)CC(C)=NCC(C)N=C(C)CC(C)=O.c1cc[c]([Sn][c]2ccccc2)cc1 (configuration not stated)
- T/C (dose: 1.25 mg/kg/injection, schedule: Q04DX003 (ip), vehicle: saline with Tween-80): 128 % of control
- T/C (dose: 2.5 mg/kg/injection, schedule: Q04DX003 (ip), vehicle: saline with Tween-80): 130 % of control

Compound: FC(F)(F)c1ccc2c(c1)N(CCCN1CCN(CC[n+]3ccccc3)CC1)c1ccccc1S2
- survivor count (dose: 2.5 mg/kg/injection, schedule: Q01DX009 (ip), vehicle: saline): 10 of 10
- survivor count (dose: 20.0 mg/kg/injection, schedule: Q01DX009 (ip), vehicle: saline): 0 of 10

Compound: C=CC1CC[N-]CC1.C=CC1CC[N-]CC1.C=CC1CC[N-]CC1.[Cl][Cr]([Cl])[Cl]
- T/C (dose: 12.5 mg/kg/injection, schedule: Q04DX003 (ip), vehicle: saline with Tween-80): 126 % of control

Compound: CN(Cc1cnc2nc(N)nc(N)c2n1)c1ccc(C(=O)NC(CCC(=O)O)C(=O)O)cc1Br (configuration not stated)
- survivor count (dose: 2.5 mg/kg/injection, schedule: Q01DX009 (ip), vehicle: other): 9 of 10
- survivor count (dose: 5.0 mg/kg/injection, schedule: Q01DX009 (ip), vehicle: other): 7 of 10

Compound: COc1cc2c(c(OC)c1OC)-c1ccc(OC)c(=O)cc1[C@@H](NC(=O)c1ccccc1)CC2
- T/C (dose: 0.25 mg/kg/injection, schedule: Q01DX009 (ip), vehicle: Klucel (hydroxypropylcellulose) (HPC), evaluated on day 45): 142 % of control
- T/C (dose: 0.25 mg/kg/injection, schedule: Q01DX009 (ip), vehicle: Klucel (hydroxypropylcellulose) (HPC), evaluated on day 60): 130 % of control
- T/C (dose: 0.5 mg/kg/injection, schedule: Q01DX009 (ip), vehicle: Klucel (hydroxypropylcellulose) (HPC), evaluated on day 45): 147 % of control
- T/C (dose: 0.5 mg/kg/injection, schedule: Q01DX009 (ip), vehicle: Klucel (hydroxypropylcellulose) (HPC), evaluated on day 60): 147 % of control
- survivor count (dose: 4.0 mg/kg/injection, schedule: Q01DX009 (ip), vehicle: Klucel (hydroxypropylcellulose) (HPC)): 7 of 10 (2×)
